Experimental data published in the supplement of paper PMC10849652.
The other results are listed elsewhere or left out.

Chains of the proteins cited; added tags and fusions are not shown. Lines headed by an entry give the natural chain unless they say otherwise; changes in a name come on top.
UniProt P29034: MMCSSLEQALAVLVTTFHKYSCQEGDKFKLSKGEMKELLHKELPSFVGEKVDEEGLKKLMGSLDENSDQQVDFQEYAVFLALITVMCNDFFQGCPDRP
UniProt P21817: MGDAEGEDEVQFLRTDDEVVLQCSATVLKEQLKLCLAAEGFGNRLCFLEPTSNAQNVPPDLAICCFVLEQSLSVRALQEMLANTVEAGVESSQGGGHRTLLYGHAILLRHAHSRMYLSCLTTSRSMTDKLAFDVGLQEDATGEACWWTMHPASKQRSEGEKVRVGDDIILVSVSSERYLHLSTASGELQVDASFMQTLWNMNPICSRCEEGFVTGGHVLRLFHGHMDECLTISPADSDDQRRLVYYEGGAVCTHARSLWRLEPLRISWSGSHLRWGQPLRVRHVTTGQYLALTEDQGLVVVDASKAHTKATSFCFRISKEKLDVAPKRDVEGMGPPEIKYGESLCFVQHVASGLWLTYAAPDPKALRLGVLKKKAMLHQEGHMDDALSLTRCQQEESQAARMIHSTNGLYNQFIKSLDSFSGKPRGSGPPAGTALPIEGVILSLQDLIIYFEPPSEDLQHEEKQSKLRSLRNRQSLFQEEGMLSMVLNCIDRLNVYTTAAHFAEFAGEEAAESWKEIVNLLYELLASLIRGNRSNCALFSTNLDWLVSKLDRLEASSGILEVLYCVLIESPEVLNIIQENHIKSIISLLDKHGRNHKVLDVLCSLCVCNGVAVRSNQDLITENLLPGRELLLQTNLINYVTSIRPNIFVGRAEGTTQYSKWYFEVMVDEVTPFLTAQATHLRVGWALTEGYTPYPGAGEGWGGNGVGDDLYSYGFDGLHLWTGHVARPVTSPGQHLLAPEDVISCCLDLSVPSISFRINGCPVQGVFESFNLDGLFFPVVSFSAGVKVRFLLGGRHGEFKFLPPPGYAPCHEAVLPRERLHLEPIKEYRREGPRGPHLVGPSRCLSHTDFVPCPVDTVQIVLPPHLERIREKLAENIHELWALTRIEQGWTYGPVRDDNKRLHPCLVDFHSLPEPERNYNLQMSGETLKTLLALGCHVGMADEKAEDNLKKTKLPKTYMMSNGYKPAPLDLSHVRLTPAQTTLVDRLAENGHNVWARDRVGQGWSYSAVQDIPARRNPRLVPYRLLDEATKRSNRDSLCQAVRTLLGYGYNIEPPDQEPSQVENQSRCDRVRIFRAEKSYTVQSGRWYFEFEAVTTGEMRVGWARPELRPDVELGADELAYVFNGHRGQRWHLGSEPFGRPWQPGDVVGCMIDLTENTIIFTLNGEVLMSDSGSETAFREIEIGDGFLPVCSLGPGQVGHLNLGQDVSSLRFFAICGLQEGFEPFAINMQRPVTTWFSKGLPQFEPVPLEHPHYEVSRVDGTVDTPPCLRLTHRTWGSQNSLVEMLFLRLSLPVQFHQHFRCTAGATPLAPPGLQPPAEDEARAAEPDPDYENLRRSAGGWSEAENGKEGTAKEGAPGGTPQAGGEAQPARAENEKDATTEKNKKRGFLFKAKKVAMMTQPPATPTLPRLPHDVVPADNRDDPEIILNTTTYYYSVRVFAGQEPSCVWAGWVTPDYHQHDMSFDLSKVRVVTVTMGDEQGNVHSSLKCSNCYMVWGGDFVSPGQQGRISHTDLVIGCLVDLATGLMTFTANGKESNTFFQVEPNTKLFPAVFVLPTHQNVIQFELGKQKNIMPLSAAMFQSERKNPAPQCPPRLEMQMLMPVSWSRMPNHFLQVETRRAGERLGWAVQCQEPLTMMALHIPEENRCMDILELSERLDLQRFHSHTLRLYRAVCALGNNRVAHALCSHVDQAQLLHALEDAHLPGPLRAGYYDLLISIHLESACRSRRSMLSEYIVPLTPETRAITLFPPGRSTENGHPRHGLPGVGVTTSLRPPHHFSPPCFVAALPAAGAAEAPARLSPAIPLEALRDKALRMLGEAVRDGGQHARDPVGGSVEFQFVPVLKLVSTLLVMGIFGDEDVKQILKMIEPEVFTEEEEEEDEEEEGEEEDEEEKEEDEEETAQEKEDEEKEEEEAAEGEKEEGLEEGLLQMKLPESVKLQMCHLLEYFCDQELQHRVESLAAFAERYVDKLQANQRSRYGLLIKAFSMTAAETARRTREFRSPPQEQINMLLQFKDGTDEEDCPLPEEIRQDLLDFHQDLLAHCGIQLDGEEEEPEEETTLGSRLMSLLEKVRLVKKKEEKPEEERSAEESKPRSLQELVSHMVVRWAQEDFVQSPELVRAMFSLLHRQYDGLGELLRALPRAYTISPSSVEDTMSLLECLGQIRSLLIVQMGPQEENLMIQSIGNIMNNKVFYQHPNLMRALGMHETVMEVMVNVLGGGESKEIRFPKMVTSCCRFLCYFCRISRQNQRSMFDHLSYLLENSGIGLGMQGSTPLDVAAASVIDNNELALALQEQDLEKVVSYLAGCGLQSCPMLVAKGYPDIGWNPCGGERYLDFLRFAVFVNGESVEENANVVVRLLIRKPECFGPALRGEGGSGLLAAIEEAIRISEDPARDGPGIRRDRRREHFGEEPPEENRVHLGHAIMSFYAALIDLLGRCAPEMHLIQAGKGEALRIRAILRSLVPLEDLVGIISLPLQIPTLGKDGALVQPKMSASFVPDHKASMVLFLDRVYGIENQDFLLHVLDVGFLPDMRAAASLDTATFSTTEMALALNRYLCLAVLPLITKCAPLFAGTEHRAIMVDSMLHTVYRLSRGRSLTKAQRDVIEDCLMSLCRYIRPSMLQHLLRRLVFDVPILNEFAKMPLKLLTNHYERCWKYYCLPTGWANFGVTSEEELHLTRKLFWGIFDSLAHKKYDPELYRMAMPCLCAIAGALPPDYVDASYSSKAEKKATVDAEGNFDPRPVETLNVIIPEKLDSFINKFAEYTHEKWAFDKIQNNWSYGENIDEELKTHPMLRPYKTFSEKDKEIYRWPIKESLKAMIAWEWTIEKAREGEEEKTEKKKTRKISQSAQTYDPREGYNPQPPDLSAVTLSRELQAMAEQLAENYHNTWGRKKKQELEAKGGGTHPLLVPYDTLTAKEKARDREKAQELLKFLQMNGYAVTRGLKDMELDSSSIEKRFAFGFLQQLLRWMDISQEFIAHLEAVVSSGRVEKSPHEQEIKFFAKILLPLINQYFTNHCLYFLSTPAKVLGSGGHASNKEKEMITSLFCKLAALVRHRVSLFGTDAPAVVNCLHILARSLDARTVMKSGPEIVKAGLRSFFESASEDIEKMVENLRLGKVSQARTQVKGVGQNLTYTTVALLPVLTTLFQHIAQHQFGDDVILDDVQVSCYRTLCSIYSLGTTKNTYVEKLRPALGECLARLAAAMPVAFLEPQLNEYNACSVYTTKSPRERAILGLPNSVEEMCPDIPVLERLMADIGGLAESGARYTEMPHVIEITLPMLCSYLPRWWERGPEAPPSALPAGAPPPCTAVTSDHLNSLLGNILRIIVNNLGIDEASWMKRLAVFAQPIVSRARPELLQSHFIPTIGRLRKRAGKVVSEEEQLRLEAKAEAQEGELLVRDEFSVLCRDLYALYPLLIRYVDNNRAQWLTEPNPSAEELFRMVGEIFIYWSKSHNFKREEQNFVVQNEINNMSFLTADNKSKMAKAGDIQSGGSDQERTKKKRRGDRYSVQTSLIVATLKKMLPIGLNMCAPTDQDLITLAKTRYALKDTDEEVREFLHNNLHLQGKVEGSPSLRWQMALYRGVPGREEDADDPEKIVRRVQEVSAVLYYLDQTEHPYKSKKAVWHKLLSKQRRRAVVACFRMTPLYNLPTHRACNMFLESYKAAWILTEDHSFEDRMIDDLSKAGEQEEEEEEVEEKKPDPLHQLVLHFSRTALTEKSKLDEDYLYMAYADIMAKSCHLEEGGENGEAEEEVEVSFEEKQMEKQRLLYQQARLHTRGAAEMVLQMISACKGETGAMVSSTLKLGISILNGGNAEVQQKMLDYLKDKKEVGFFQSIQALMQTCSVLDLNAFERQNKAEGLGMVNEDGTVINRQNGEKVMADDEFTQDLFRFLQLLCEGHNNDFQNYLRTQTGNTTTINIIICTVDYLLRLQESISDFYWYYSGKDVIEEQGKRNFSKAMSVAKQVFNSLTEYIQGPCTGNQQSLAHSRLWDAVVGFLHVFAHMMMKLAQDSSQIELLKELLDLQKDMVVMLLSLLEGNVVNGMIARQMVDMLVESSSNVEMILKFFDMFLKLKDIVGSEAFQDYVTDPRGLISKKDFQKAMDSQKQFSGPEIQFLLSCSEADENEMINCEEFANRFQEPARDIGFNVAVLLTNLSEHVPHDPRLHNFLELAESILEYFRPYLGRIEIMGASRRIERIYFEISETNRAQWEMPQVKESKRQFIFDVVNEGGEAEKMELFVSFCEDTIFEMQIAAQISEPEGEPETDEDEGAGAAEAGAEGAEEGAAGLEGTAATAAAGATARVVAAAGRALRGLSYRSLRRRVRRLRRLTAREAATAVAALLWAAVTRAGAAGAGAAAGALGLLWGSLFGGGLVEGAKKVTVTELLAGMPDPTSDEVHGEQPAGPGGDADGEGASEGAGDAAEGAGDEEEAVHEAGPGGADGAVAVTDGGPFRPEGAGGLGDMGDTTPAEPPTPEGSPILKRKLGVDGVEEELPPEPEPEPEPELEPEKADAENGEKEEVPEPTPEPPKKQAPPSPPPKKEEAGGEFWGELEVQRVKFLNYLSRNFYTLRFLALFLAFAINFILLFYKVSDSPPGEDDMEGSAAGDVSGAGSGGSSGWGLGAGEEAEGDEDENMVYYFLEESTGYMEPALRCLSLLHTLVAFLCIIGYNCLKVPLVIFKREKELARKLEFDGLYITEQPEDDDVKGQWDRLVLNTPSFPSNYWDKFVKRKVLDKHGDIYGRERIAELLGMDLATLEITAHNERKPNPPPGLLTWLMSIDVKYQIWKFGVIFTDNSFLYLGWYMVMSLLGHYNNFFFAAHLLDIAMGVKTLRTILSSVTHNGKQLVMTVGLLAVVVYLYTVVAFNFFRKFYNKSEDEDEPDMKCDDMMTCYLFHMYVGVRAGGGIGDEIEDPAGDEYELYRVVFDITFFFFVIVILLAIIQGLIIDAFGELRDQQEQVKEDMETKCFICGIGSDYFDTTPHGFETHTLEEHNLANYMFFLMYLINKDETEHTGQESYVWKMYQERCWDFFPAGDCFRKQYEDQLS
UniProt O95059: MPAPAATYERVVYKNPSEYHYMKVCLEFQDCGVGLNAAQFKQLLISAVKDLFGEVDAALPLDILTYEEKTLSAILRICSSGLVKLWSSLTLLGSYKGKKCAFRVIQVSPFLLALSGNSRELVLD
UniProt Q96CM3: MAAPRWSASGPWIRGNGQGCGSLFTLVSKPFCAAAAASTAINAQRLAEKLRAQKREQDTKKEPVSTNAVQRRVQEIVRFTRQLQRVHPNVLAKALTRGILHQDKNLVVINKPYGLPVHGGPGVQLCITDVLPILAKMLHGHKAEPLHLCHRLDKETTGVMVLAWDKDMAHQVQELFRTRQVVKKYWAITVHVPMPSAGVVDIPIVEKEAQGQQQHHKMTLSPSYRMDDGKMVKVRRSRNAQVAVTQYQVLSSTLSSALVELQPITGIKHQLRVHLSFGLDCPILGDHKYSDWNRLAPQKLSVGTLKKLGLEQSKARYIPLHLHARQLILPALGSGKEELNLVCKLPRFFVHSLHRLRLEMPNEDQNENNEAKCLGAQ
UniProt Q8N5L8: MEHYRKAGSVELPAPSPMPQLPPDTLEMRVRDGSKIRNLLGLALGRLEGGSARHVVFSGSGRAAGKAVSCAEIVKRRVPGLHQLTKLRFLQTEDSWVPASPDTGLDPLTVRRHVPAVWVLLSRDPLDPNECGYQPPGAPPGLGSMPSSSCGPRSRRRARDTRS
UniProt Q9Y3A4: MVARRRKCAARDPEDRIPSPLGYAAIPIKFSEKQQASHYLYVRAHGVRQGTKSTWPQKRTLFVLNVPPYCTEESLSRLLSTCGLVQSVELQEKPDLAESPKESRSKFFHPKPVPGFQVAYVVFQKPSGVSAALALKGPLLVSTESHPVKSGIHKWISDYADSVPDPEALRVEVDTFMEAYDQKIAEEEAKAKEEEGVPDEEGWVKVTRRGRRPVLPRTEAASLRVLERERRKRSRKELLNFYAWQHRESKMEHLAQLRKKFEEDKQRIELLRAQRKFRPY
UniProt Q9Y265, whole entry, looked up: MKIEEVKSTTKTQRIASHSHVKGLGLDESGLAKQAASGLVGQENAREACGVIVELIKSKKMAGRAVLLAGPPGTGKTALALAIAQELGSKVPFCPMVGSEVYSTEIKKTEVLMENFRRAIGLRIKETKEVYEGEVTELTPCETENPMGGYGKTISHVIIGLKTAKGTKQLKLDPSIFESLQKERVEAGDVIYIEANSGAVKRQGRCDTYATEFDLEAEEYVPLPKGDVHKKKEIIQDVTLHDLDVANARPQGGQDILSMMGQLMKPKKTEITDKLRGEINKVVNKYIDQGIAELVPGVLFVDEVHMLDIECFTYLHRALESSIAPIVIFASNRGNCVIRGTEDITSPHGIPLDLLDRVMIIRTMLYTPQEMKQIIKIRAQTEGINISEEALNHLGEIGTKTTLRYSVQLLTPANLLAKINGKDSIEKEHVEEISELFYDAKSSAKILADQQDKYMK

Each target was assayed with CN1CCN(c2nc(C3=C(c4c[nH]c5ccccc45)C(=O)NC3=O)c3ccccc3n2)CC1 [sotrastaurin] (assay: log2 fold change, soluble protein after heating vs DMSO (PISA); higher = thermal stabilisation; K562 lysate, 10 uM; active = over 0.2 and 3.5 SD of the protein, either way, in both replicates (recomputed)).
Summary of the method: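 A 30 min treatment with 10 μM compound was applied to crude K562 extract at 1 mg/mL protein in PBS pH 7.4 with 1 mM MgCl2. Heating for 3 min spanned 48°C-58°C, after which aliquots were pooled, adjusted to 0.5% NP-40 at 4°C and spun at 21,000xg for 90 min. TMTpro 16plex LC-MS/MS of the supernatant, with channel sums equalised, gave values recorded as log-two fold change in thermal stability against solvent controls, from duplicates.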

Target | log2 fold change
RPS27L (UniProt Q71UM5) | inactive: -0.013
S100A11 (UniProt P31949) | inactive: -0.036
RTCA (UniProt O00442) | inactive: -0.009
S100A2 (UniProt P29034) | inactive: -0.083
RSRC2 (UniProt Q7L4I2) | inactive: 0.2
RYR1 (UniProt P21817) | inactive: 0.091
RSAD1 (UniProt Q9HA92) | inactive: 0.162
RPP14 (UniProt O95059) | inactive: 0.065
RPS26 (UniProt P62854) | inactive: 0.044
RPP38 (UniProt P78345) | inactive: -0.004
RPUSD4 (UniProt Q96CM3) | inactive: 0.016
RWDD2B (UniProt P57060) | inactive: 0.066
RREB1 isoform 2 (UniProt Q92766) | inactive: 0.017
RPP25L (UniProt Q8N5L8) | inactive: -0.039
RSF1 (UniProt Q96T23) | inactive: -0.011
RPS6KA3 (UniProt P51812) | inactive: 0.037
RXRB isoform 3 (UniProt P28702) | inactive: -0.051
RSBN1L (UniProt Q6PCB5) | inactive: 0.069
RPN2 (UniProt P04844) | inactive: 0.008
RPS2 (UniProt P15880) | inactive: -0.016
RPS3A (UniProt P61247) | inactive: 0.008
RRP7A (UniProt Q9Y3A4) | inactive: 0.062
RPS24 isoform 4 (UniProt P62847) | inactive: -0.007
RRN3 (UniProt Q9NYV6) | inactive: 0.16
S100A10 (UniProt P60903) | inactive: 0.331
RUFY3 isoform 2 (UniProt Q7L099) | inactive: 0.067
RTL10 (UniProt Q7L3V2) | inactive: 0.008
RPS6KA1 (UniProt Q15418) | inactive: 0.103
RUVBL1 (UniProt Q9Y265) | inactive: -0.013
S100A16 (UniProt Q96FQ6) | inactive: 0.131

Taken from the entries so far for reference:
Target | log2 fold change
RTL10 (UniProt Q7L3V2) | inactive: 0.008
RPS6KA1 (UniProt Q15418) | inactive: 0.103
